For this assay, the system named is HEK293A TEAD-LUC reporter. Briefly: TEAD-luciferase reporter activity (YAP activation), robust Z score vs plate; higher = stronger YAP/TEAD activation. As to conditions: 24 h.

The values below come from the supplement of paper PMC10735217.

This is one part of the list. Repeats in this data set agree poorly, so a single value says little.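 The human kidney-derived cells carry a stably integrated construct of eight TEAD-binding elements driving luciferase, read by luminescence in a drug-repurposing library screen. A compound counts as a hit when its signal is more than five robust Z scores above the plate mean.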

Take `CC(=O)OC[C@H]1O[C@@H](n2cc(F)c(=O)[nH]c2=O)C[C@@H]1OC(C)=O`: the TEAD-luciferase reporter activity (compound concentration: 200 nM) is inactive: -0.85, the TEAD-luciferase reporter activity (compound concentration: 2 uM) is inactive: -1.1 and the TEAD-luciferase reporter activity (compound concentration: 10 uM) was inactive: 0.397.
`CCn1c(=O)c2c(nc(/C=C/c3ccc(OC)c(OC)c3)n2C)n(CC)c1=O` [Istradefylline]: the TEAD-luciferase reporter activity by setting is: (compound concentration: 200 nM) inactive: -1.11; (compound concentration: 2 uM) inactive: -0.0211; (compound concentration: 10 uM) inactive: 1.81.
For `COCC1=C(C(=O)O)N2C(=O)[C@@H](NC(=O)/C(=N\O)c3csc(N)n3)[C@H]2SC1` the same measures were inactive: 1.17, inactive: -0.959 and inactive: 0.3.
For `CCOCOC[C@H](C[C@H](C)C(=O)NO)NC(=O)c1ccc(Oc2ccccc2)cc1` the same measures were inactive: 0.809, inactive: -1.81 and inactive: 0.836.
The matching figures for `N=C(N)NCCC[C@H](N)C(=O)NCC(=O)N[C@@H](CC(=O)O)C(=O)N[C@@H](CO)C(=O)O`: inactive: 1.6, inactive: 2.5 and inactive: 1.37.
Take `C[C@H](NCCc1ccc(O)cc1)[C@H](O)c1ccc(O)cc1` [ritodrine]: the TEAD-luciferase reporter activity reads like this: (compound concentration: 200 nM) inactive: -1.92; (compound concentration: 2 uM) inactive: -1.84; (compound concentration: 10 uM) active: 6.95.
For `COC(=O)Nc1nc2cc(Sc3ccc(NC(=O)[C@H](C)N)cc3)ccc2[nH]1` the same measures were inactive: 2.49, active: 9.79 and inactive: 4.06.
For `NC(=O)C1C(=O)C[C@@H]2C[C@@H]3Cc4cccc(O)c4C(=O)C3C(=O)[C@]2(O)C1=O` (some centres undefined) [incyclinide] the same measures were inactive: 0.439, inactive: 0.163 and inactive: -0.388.
In the case of `COc1cc(N(CCN(C)C)C(N)=O)cc(OC)c1OC`, the TEAD-luciferase reporter activity runs as follows: (compound concentration: 200 nM) inactive: -1.32; (compound concentration: 2 uM) inactive: 0.969; (compound concentration: 10 uM) inactive: -1.3.
With `NCCCCC(NC(=O)C1(C(=O)NCCc2ccccc2)CCCC1)B(O)O` (centres undefined), the TEAD-luciferase reporter activity (compound concentration: 200 nM) was inactive: 0.971, the TEAD-luciferase reporter activity (compound concentration: 2 uM) is inactive: -1.54 and the TEAD-luciferase reporter activity (compound concentration: 10 uM) was inactive: 3.79.
Take `Clc1ccc2c(c1)NC(N1CCNCC1)=c1ccccc1=N2`: the TEAD-luciferase reporter activity by setting is: (compound concentration: 200 nM) inactive: -2.36; (compound concentration: 2 uM) inactive: 3.19; (compound concentration: 10 uM) inactive: 0.0944.
The matching figures for `CC(C)=CCN1Cc2cccc3[nH]c(=S)n(c23)C[C@@H]1C`: inactive: -0.796, inactive: -1.24 and inactive: 2.19.
In the case of `CC(C)CCC[C@@H](C)[C@H]1CC[C@H]2[C@@H]3CCC4=C/C(=N\O)CC[C@]4(C)[C@H]3CC[C@]12C` [olesoxime], the TEAD-luciferase reporter activity (compound concentration: 200 nM) was inactive: -0.507, the TEAD-luciferase reporter activity (compound concentration: 2 uM) was inactive: -1.24 and the TEAD-luciferase reporter activity (compound concentration: 10 uM) is inactive: 1.34.
Turning to `COc1ccc2sc(C(C)(C)C)nc2c1NC(=S)SCCC(=O)O`, the TEAD-luciferase reporter activity was inactive: 2.1 (compound concentration: 200 nM), inactive: -1.62 (compound concentration: 2 uM) and inactive: 0.0607 (compound concentration: 10 uM).
As to `c1ccc(N2CCN(CCCOc3ccc4c(c3)OCO4)CC2)cc1`, the TEAD-luciferase reporter activity runs as follows: (compound concentration: 200 nM) inactive: -0.243; (compound concentration: 2 uM) inactive: -2.34; (compound concentration: 10 uM) inactive: 0.112.
For `CC[C@H](CC[C@@H](C)[C@H]1CCC2[C@@H]3C[C@@H](O)[C@@]4(O)C[C@@H](O)CC[C@]4(C)C3CC[C@@]21C)C(C)C` (some centres undefined) [Lebanus Cedra] the same measures were inactive: -0.195, inactive: 3.37 and inactive: 0.0814.
For `O=C(O)c1cccc(-c2nc(N3CCC(OCc4c(-c5c(Cl)cccc5Cl)noc4C4CC4)CC3)no2)c1` [analog of LJN-452], the TEAD-luciferase reporter activity was inactive: -0.0487 (compound concentration: 200 nM), inactive: -0.524 (compound concentration: 2 uM) and inactive: 1.26 (compound concentration: 10 uM).
The matching figures for `O=C(O)Cn1nnnc1-c1ccsc1`: inactive: 1.58, inactive: -0.835 and inactive: 1.37.
On to `CN[C@@H]1[C@H](O[C@H]2[C@H](O[C@H]3[C@H](O)[C@@H](O)[C@H](NC(=N)N)[C@@H](O)[C@@H]3NC(=N)N)O[C@@H](C)[C@]2(O)C=O)O[C@@H](CO)[C@H](O)[C@H]1O` [Streptomycin], for which the TEAD-luciferase reporter activity is inactive: -0.0321 (compound concentration: 200 nM) and inactive: 1.48 (compound concentration: 10 uM).
As for `CCCNc1nc(C)nc(Nc2c(Cl)cc(C)c3nccnc23)c1C`, the TEAD-luciferase reporter activity reads like this: (compound concentration: 200 nM) inactive: 2.34; (compound concentration: 2 uM) inactive: 0.00652; (compound concentration: 10 uM) inactive: -0.853.
On to `COCc1cccc(C[C@H](O)/C=C/[C@H]2[C@H](O)CC(=O)[C@@H]2CCSCCCC(=O)OC)c1`, for which the TEAD-luciferase reporter activity is inactive: -1.62 (compound concentration: 200 nM), inactive: 1.05 (compound concentration: 2 uM) and inactive: -1.51 (compound concentration: 10 uM).
Turning to `CN1CC[C@@H](c2c(O)cc(O)c3c(=O)cc(-c4ccccc4Cl)oc23)[C@@H]1CO` [riviciclib], the TEAD-luciferase reporter activity runs as follows: (compound concentration: 200 nM) inactive: -2.64; (compound concentration: 2 uM) inactive: -2.97; (compound concentration: 10 uM) inactive: 0.428.
On to `CC(=O)N1CCN(c2ccc(OCC3CO[C@](Cn4ccnc4)(c4ccc(Cl)cc4Cl)O3)cc2)CC1` (some centres undefined) [Ketoconazole], for which the TEAD-luciferase reporter activity is inactive: -0.505 (compound concentration: 200 nM), inactive: -1.04 (compound concentration: 2 uM) and inactive: -0.332 (compound concentration: 10 uM).
As for `O=C(c1cc(S(=O)(=O)Nc2ccccc2F)c(F)cc1Cl)N1CCN2CCC[C@@H]2C1`, the TEAD-luciferase reporter activity is, setting by setting: (compound concentration: 200 nM) inactive: -0.298; (compound concentration: 2 uM) inactive: -0.397; (compound concentration: 10 uM) inactive: -1.36.
As to `Oc1ccccc1`, the TEAD-luciferase reporter activity by setting is: (compound concentration: 200 nM) inactive: -0.252; (compound concentration: 2 uM) inactive: -0.655; (compound concentration: 10 uM) inactive: -0.802.
